# The whole screen tested about 340,000 compounds, of which about 170 (0.05%) were called active. The shares of active, inactive and inconclusive entries below differ from those in the screen. Calls follow the shape of the dose curve; as a rule, active = well fitted inhibition curve with a large enough effect in the signal ratio, with a control signal flat (not every such curve was filed as active); inconclusive = small, poorly fitted or top-dose-only effect, or effect the other way, or a change in a side signal; inactive = flat fitted curve, though single readings scatter; the % refers to the signal ratio. Potencies of inconclusive entries are doubtful fits and often do not repeat.
# Test: qHTS Assay to Find Inhibitors of Chronic Active B-Cell Receptor Signaling;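 as to activity change, negative = inhibition: plate controls were basal doxycycline-induced cells for no effect and cells given 10 µM MG132 for full effect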
# Details: ABC-DLBCL IkBa-CBG/CBR reporter, luminescence ratio (green luciferase fused to IkBa over red control in TMD8 lymphoma cells), 4 h; activity change, negative = inhibition: at 46.1 µM (top of the series)
# Summary of the method: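 Doxycycline induced both beetle luciferases in TMD8 lymphoma cells; IKK-driven degradation limits the IkappaBalpha-fused green signal, while red luminescence normalises for cell number and nonspecific effects. Compounds tested up to 46 uM, 4 hrs.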
# Potency is read from the fitted curve at half-maximal effect.
Structure (SMILES),"activity change, negative = inhibition",Potency
Cc1nn(Cc2c(F)c(F)c(F)c(F)c2F)c(C)c1NC(=O)c1ccc(COc2ccccc2Cl)cc1,inconclusive: -2.35%,
CC1(C(=O)O)CCC(C(=O)Nc2ccc(OC(F)(F)Cl)cc2)C1(C)C (stereo not drawn),inconclusive: 11.7%,
COC(=O)c1cc(C(=O)N2CCN(c3cccc(C)c3C)CC2)cc([N+](=O)[O-])c1,,"inconclusive: 10 µM [falling, partial curve, poor fit]"
CN(Cc1ccccc1F)c1nc(-c2cccnc2)nc2ccccc12,inconclusive: 3.45%,
Cc1cc(C)c(C#N)c(N2CCN(Cc3ccc4c(c3)OCO4)CC2)n1,inconclusive: 2.61%,
Cc1ccc(C)c(/C=C/C(=O)c2ccccc(=O)c2O)c1,,"inconclusive: 20.6 µM [cytotoxic, single point]"
CCCCNc1c(-c2ccc(OC)c(SC(C)CC)c2)nc2ccc(C)cn12 (stereo not drawn),inconclusive: -17.8%,
Nc1ccc2nn(-c3ccc(Cl)cc3)nc2c1,,"inconclusive: 17.8 µM [falling, single point]"
O=C(Nc1cccc(S(=O)(=O)N2CCCCC2)c1)C1=NN(c2ccccc2)C(=O)CC1,inactive: 0.643%,
COc1ccc(-c2nc3ccccc3c(=O)o2)cc1OC,,"inconclusive: 11.2 µM [falling, partial curve]"
CC(Nc1ccc(Br)cc1)C(=O)N/N=C/c1ccccc1OCc1ccccc1 (stereo not drawn),inconclusive: -1.13%,
COc1cccc(NC(=O)C(c2ccccc2)N2CCCCC2)c1 (stereo not drawn),inactive: 17%,
CCOC(=O)C1(CCOc2ccccc2)CCN(Cc2ccc(O)c(Cl)c2)CC1,inactive: -4.8%,
C=CCNc1nnc(Cc2ccc(C(C)C)cc2)c(=O)[nH]1,inactive: -3.3%,
O=C(CSc1ccccn1)N1CCN(c2ccccc2)CC1,inactive: 4.33%,
Cc1cc(C)c(C#N)c(Sc2nnnn2-c2ccccc2)n1,inactive: 11.5%,
NNc1nc(-c2ccccc2)c2cc(Cl)ccc2n1,inconclusive: 12.8%,
Cc1ccc2c(c1)NC(=O)[C@@]1(C)[C@@H](c3ccccc3)[C@H]3COc4ccccc4[C@@H]3N1C2=O,inconclusive: 14.3%,
CCc1ccc(C(=O)COC(=O)c2cnccn2)cc1,,"inconclusive: 20.6 µM [falling, partial curve, poor fit]"
O=c1c2c([nH]c3ccccc13)C(=C1CCCC1)CC2,inconclusive: -1.34%,
O=C(Cc1cccc2ccccc12)NCCc1ccccc1,inconclusive: 8.69%,

Structure (SMILES),"activity change, negative = inhibition",Potency
CC(=O)c1ccc(NC(=O)Nc2cccc3ccccc23)cc1,,"inconclusive: 20 µM [falling, partial curve, poor fit]"
O=C(CSc1ncccn1)N/N=C/c1ccc(OC2CSC2)cc1,,"inconclusive: 35.5 µM [falling, single point]"
Cc1nc(NC2=NCN(Cc3cccnc3)CN2)nc2c(C)cccc12,inconclusive: -0.128%,
CN(C)c1ccc(/C=N/NC(=O)c2ccc(NC(=O)c3ccccc3)cc2)cc1,,"inconclusive: 20 µM [falling, single point]"
O=C(Nc1ccc(CN2CCCCC2)cc1)c1sc2ccccc2c1Cl,inconclusive: -10.2%,
CCCOc1ccc(OCCNC2CCCC2)cc1,inactive: 1.57%,
Cc1nc2c(C)cccc2c2c1COC2,inconclusive: 2.8%,
CCN1CCCC1CNC(=O)C(=O)NC (stereo not drawn),inactive: 7.63%,
CCCn1c(N2CCN(C(=O)Nc3ccc(Cl)cc3)CC2)nc2ccccc21,inconclusive: 21.7%,
CC(C1CC1)N(C(=O)NC1CCS(=O)(=O)C1)c1ccccc1 (stereo not drawn),inconclusive: 0.294%,
O=C(COc1ccc(-c2ccccc2)cc1)N1CCN(S(=O)(=O)Cc2ccccc2)CC1,,"inconclusive: 4.11 µM [falling, full curve]"
O=C(Nc1ccc2c(c1)N(C1CCCC1)C(=O)c1ccccc1S2)c1ccc(F)cc1,inactive: 12.9%,
COC(=O)c1c(C)[nH]c(-c2csc(N)n2)c1C,,"inconclusive: 12.6 µM [falling, partial curve, poor fit]"
CCSc1nnc(NC(=O)c2ccccc2C)s1,,"inconclusive: 35.5 µM [rising, partial curve]"
COc1cc(NS(=O)(=O)c2ccc(NC(=S)NC(=O)c3sc4cc(F)ccc4c3Cl)cc2)nc(OC)n1,inactive: -1.4%,
COc1cc(C)c(CNc2cccc(C)c2)cc1C,inconclusive: 9.19%,
CCCC[C@@H](CN[C@H](C)CNC)NCC1CCC(C(C)(C)C)CC1 (stereo partly drawn),,"inconclusive: 28.2 µM [falling, single point]"
CCCc1cc(NC(=O)COC(=O)c2ccc(O)cc2O)n(-c2ccccc2)n1,inconclusive: -2.22%,
O=C(NC(=S)Nc1ccc(S(=O)(=O)Nc2nccs2)cc1)c1ccc(Br)o1,inconclusive: -175%,
CC(C)(C)C1CCC(OC(=O)CN2CCOCC2)CC1 (stereo not drawn),inconclusive: 0.296%,
COc1ccc(CNC(=O)Cn2nc([N+](=O)[O-])cc2C)cc1,inconclusive: -0.969%,

Structure (SMILES),"activity change, negative = inhibition",Potency
CC1Sc2ccc(S(=O)(=O)CCC(=O)N3CCN(c4cccc(Cl)c4)CC3)cc2NC1=O (stereo not drawn),inactive: -3.06%,
O=S(=O)(NC1CCCC1)c1cc(F)ccc1F,inconclusive: -1.52%,
O=C(N/N=C/c1ccc2cccc(OCc3ccccc3)c2n1)c1ccc(Br)cc1,inconclusive: -6.35%,
Cc1ccc(S(=O)(=O)N2CCCCC2)cc1NC(=O)CCN1C(=O)C2CC=CCC2C1=O (stereo not drawn),inconclusive: 0.0483%,
Cc1ccc(CNC(=O)Cn2nnc(C(=O)Nc3cccc(C)c3C)c2N)cc1,inconclusive: 0.433%,
CN(CCO)CCOCCOc1cccc2ccccc12,inconclusive: -21.6%,
CCC(C)[C@H](NC(=O)NC1CC1)C(=O)O (stereo partly drawn),inconclusive: 0.0304%,
COc1ccccc1-c1nnc2n1N=C(C(C)(C)C)CS2,inconclusive: 0.192%,
CCC(C(=O)NC1CCCCCC1)n1nc(C)c2c(C)n(-c3ccccc3)nc2c1=O (stereo not drawn),inactive: -1.59%,
Cc1cc2ncn(/N=C/c3ccc([N+](=O)[O-])s3)c2cc1C,inconclusive: 8.72%,
C=CCN(CC=C)C(=S)NC(=O)c1ccc(OC)cc1,inconclusive: -14.2%,
COCCNC(=O)c1cc(-c2ccccc2C)n(CC2CC(c3cccc([N+](=O)[O-])c3)=NO2)n1 (stereo not drawn),inconclusive: 2.32%,
COc1cccc(-c2nc(CS(=O)(=O)CC(=O)NCCCN3CC(C)CC(C)C3)c(C)o2)c1 (stereo not drawn),,"inconclusive: 22.4 µM [falling, single point]"
CC(C)c1ccc(C(=O)CSc2ncn[nH]2)cc1,inconclusive: -22.5%,
CC(C)CC(=O)NC(=S)Nc1cccc2nsnc12,,"inconclusive: 0.562 µM [rising, full curve, poor fit]"
Clc1ccc(OCCSc2ncccn2)c(Br)c1,inconclusive: 0.51%,
Cc1cccc(NC(=S)NCCc2ccccn2)c1,inconclusive: 2.14%,
Cc1ccc(-c2csc(NC(=O)CN3CC(C)OC(C)C3)n2)cc1 (stereo not drawn),inconclusive: -6.37%,
Cc1ccc(-n2c(C)cc(/C=N/NC(=O)c3ccncc3)c2C)cc1C,inactive: -2.74%,
C=CCN=C1S/C(=C\c2ccc(N(C)C)cc2)C(=O)N1CC=C,,"inconclusive: 11.2 µM [rising, partial curve, poor fit]"
O=C(CCSc1ccc(Cl)cc1)N1CCN(c2ccc(O)cc2)CC1,inactive: 4.68%,

Structure (SMILES),"activity change, negative = inhibition",Potency
COc1ccc(C)cc1NC(=O)C(Sc1ccccc1)c1ccccc1 (stereo not drawn),inconclusive: 1.6%,
Cc1cc(C)n(Cc2ccc(C(=O)O)o2)n1,inconclusive: -7.59%,
Cc1ccc2nc(SCc3cccc([N+](=O)[O-])c3)nc(C)c2c1,inconclusive: -2.48%,
CC(=O)Nc1cccc(NC(=O)Nc2ccc(F)cc2F)c1,,"inconclusive: 2 µM [falling, full curve]"
Cn1c(-c2ccc(F)cc2)cnc1NCc1ccccc1F,,"inconclusive: 25.1 µM [falling, single point]"
CCCNC(=O)c1ccc(N2CCC3(CC2)CC(c2ccccc2)=NO3)c(NC(=O)c2ccc(Br)cc2)c1,inactive: 3.71%,
CCCC[C@@H](CNC)NC[C@H](NCCCCC1CCCCC1)C(C)C,,"inconclusive: 15.8 µM [falling, single point]"
COc1cccc(/C=N/NC(=O)CSCC(=O)Nc2ccccc2)c1O,inactive: -23.1%,
O=C(O)c1ccc(CS(=O)(=O)c2ccc(Br)cc2)cc1,inactive: 2.3%,
C=CCn1c(=NC(=O)C2COc3ccccc3O2)sc2cc(S(N)(=O)=O)ccc21 (stereo not drawn),inconclusive: 5.4%,
Cc1c(CC(=O)NCCC(=O)O)c(=O)oc2cc3oc4c(c3cc12)CCCC4,inconclusive: -0.369%,
CCOC(=O)CNC(=O)c1sc(NC(=O)c2ccccc2)nc1C,,"inconclusive: 29.1 µM [falling, single point]"
COc1ccc(-n2c(COc3ccccc3)nnc2SCc2ccc(C#N)cc2)cc1,inconclusive: -1.65%,
Nc1c(C(=O)Nc2ccc(Br)cc2)sc2nc(-c3ccco3)ccc12,inactive: 10.9%,
O=C(CCC1CCCC1)Nc1cc(Cl)ccc1N1CCOCC1,inactive: 5.76%,
COc1ccc(C(=O)Nc2cc3c4c(c2)C(C)C(=O)N4CCC3)cc1 (stereo not drawn),,"inconclusive: 9.2 µM [falling, partial curve, poor fit]"
O=C(O)c1ccc2c(c1)C(=O)N(c1ccc([N+](=O)[O-])cn1)C2=O,,"inconclusive: 25.1 µM [falling, partial curve, poor fit]"
CC(=O)N1CCc2cc(S(=O)(=O)CCC(=O)NCCc3ccc(Cl)cc3)ccc21,inactive: 8.61%,
COc1ccccc1OCCCN1C(=O)C(=O)c2cccc(C)c21,,"inconclusive: 17.8 µM [falling, single point]"
CSc1cccc(NC(=O)C2CCN(S(=O)(=O)c3ccc4c(c3)NC(=O)CO4)CC2)c1,inconclusive: 0.972%,

# Molecules from the list above containing a nitro group on carbon (6):
Structure (SMILES),"activity change, negative = inhibition",Potency
COC(=O)c1cc(C(=O)N2CCN(c3cccc(C)c3C)CC2)cc([N+](=O)[O-])c1,,"inconclusive: 10 µM [falling, partial curve, poor fit]"
COc1ccc(CNC(=O)Cn2nc([N+](=O)[O-])cc2C)cc1,inconclusive: -0.969%,
Cc1cc2ncn(/N=C/c3ccc([N+](=O)[O-])s3)c2cc1C,inconclusive: 8.72%,
COCCNC(=O)c1cc(-c2ccccc2C)n(CC2CC(c3cccc([N+](=O)[O-])c3)=NO2)n1 (stereo not drawn),inconclusive: 2.32%,
Cc1ccc2nc(SCc3cccc([N+](=O)[O-])c3)nc(C)c2c1,inconclusive: -2.48%,
O=C(O)c1ccc2c(c1)C(=O)N(c1ccc([N+](=O)[O-])cn1)C2=O,,"inconclusive: 25.1 µM [falling, partial curve, poor fit]"

# Source: PubChem BioAssay AID493014 (National Center for Advancing Translational Sciences (NCATS), 2011)
